The target in assay [1] is FLAG-HDAC1 (recombinant, baculovirus expressed, affinity purified) (UniProt Q13547). Nature of the assay: purified proteins (3 pmol HDAC1, 10 pmol His-MyoD), anti-HDAC1 immunoprecipitation, anti-MyoD blot.
Assay [2] shares this target. The experiment in a line: purified proteins, anti-HDAC1 immunoprecipitation (FIG. 6B).
Assay [3] addresses HDAC1 (endogenous, in extracts of C2C12 cells and other myogenic cells) (mouse) (UniProt O09106). Nature of the assay: immunoprecipitation of HDAC1 from MyoD-converted pRb-/- p53+/- 3T3 fibroblasts, anti-MyoD Western blot.
The target of assay [4] is Flag-HDAC1 (expressed from a transfected vector in cells) (UniProt Q13547). Nature of the assay: GST pull-down from extracts of transfected pRb-/- 3T3 cells, anti-Flag Western blot (FIG. 9B, lanes 1 to 5).
Assay [5] concerns the target HDAC2 (endogenous, C2C12 cells) (mouse) (UniProt P70288). Nature of the assay: co-immunoprecipitation from C2C12 extracts (data not shown).
In assay [6] the target is Flag-HDAC1 (expressed from a transfected vector in cells) (UniProt Q13547). Nature of the assay: GST-pRb pre-incubation and anti-Flag IP (FIG. 9B).
Assay [7] has the same target. The experiment in a line: co-immunoprecipitation from transfected pRb-/- 3T3 cells.

Chains of the proteins cited; added tags and fusions are not shown.
UniProt Q13547: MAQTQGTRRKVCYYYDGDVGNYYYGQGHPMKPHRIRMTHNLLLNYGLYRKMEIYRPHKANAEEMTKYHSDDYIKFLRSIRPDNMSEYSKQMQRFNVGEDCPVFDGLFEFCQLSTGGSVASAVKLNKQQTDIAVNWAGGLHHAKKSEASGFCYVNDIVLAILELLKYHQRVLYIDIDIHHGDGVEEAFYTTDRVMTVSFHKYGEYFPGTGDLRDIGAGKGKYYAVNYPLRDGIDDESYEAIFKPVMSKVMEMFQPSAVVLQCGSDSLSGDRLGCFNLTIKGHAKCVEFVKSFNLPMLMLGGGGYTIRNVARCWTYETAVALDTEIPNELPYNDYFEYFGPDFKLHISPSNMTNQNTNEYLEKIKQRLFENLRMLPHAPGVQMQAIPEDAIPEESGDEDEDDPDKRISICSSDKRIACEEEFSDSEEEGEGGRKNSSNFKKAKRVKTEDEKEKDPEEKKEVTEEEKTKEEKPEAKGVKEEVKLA
UniProt O09106: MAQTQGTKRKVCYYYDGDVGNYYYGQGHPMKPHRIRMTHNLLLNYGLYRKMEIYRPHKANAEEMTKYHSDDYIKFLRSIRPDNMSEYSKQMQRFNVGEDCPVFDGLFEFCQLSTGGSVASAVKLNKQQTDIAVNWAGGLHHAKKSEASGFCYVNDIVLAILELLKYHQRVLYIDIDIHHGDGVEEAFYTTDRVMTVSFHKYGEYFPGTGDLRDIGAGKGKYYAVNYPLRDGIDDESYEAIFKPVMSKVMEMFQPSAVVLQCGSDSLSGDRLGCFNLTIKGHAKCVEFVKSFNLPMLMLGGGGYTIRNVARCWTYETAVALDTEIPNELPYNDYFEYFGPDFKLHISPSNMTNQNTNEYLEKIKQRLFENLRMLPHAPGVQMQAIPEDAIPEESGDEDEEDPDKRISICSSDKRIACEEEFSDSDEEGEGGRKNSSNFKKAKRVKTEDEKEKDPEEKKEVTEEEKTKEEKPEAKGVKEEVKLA
UniProt P70288: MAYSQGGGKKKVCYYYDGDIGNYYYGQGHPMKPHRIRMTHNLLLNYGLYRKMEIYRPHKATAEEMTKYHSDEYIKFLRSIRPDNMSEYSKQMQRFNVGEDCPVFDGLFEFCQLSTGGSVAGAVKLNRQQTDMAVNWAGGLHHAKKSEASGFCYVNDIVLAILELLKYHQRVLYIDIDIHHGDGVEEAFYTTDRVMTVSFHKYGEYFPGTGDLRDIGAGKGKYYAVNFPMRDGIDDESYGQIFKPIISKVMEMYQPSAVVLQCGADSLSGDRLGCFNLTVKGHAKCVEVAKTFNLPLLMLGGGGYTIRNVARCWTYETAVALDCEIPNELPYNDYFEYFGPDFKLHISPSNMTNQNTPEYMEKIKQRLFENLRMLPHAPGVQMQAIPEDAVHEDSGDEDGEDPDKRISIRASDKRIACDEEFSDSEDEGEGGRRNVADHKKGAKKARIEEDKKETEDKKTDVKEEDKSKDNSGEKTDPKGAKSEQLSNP

These are yes or no findings as the source states them, for the method shown. For some assays here: In cells and extracts the contact can be indirect. Some entries that bind do so weakly or less than the wild type. For some assays here: Sequences can lack the tags named with a protein.

Turning to “His-MyoD (recombinant, expressed in bacteria) (from UniProt P10085 1-318)”, the binding result in assay [1] and in assay [2] was “binds” each time.

On to “MyoD expressed by retrovirus in pRb-/- p53+/- double knock out derived 3T3 fibroblasts (from UniProt P10085 1-318)”, for which, in assay [3], the binding entry is “binds”.

B1: GST-pRb wt (protein, UniProt P06400 379-928, looked up, not shown: a dimerising Fc or GST)
chain: MNTIQQLMMILNSASDQPSENLISYFNNCTVNPKESILKRVKDIGYIFKEKFAKAVGQGCVEIGSQRYKLGVRLYYRVMESMLKSEEERLSIQNFSKLLNDNIFHMSLLACALEVVMATYSRSTSQNLDSGTDLSFPWILNVLNLKAFDFYKVIESFIKAEGNLTREMIKHLERCEHRIMESLAWLSDSPLFDLIKQSKDREGPTDHLESACPLNLPLQNNHTAADMYLSPVRSPKKKGSTTRVNSTANAETQATSAFQTQKPLKSTSLSLFYKKVYRLAYLRLNTLCERLLSEHPELEHIIWTLFQHTLQNEYELMRDRHLDQIMMCSMYGICKVKNIDLKFKIIVTAYKDLPHAVQETFKRVLIKEEEYDSIIVFYNSVFMQRLKTNILQYASTRPPTLSPIPHIPRSPYKFPSSPLRIPGGNIYISPLKSPYKISEGLPTPTKMTPRSRILVSIGESFGTSEKFQKINQMVCNSDRVLKRSAEGSNPPKPLKKLRFDIEGSDEADGSKHLPGESKFQQKLAEMTSTRTRMQKQKMNDSMDTSNKEEK
For B1, the binding result in assay [4] is given as “binds”.

B2: MyoD (endogenous, in extracts of C2C12 cells; also endogenous MyoD of MD3 and CC42 cells) (other, mouse, UniProt P10085 1-318, looked up)
chain: MELLSPPLRDIDLTGPDGSLCSFETADDFYDDPCFDSPDLRFFEDLDPRLVHMGALLKPEEHAHFPTAVHPGPGAREDEHVRAPSGHHQAGRCLLWACKACKRKTTNADRRKAATMRERRRLSKVNEAFETLKRCTSSNPNQRLPKVEILRNAIRYIEGLQALLRDQDAAPPGAAAFYAPGPLPPGRGSEHYSGDSDASSPRSNCSDGMMDYSGPPSGPRRQNGYDTAYYSEAARESRPGKSAAVSSLDCLSSIVERISTDSPAAPALLLADAPPESPPGPPEGASLSDTEQGTQTPSPDAAPQCPAGSNPNAIYQVL
notes: Transcription factor (bHLH)
As to B2, in assay [5], the binding result is recorded as “binds”.

B3: myc-MyoD (expressed from a transfected vector in pRb-/- 3T3 cells) (other, UniProt P10085 1-318, looked up)
chain: B2 chain
notes: also called myc-tagged MyoD; not shown: myc tag
For B3, the binding entry in assay [6] and in assay [7] was “binds” each time.

B4: hypophosphorylated pRb (endogenous, differentiated C2C12 myotubes, DM) (protein, mouse, UniProt P13405 2-921, looked up)
chain: PPKAPRRAAAAEPPPPPPPPPREDDPAQDSGPEELPLARLEFEEIEEPEFIALCQKLKVPDHVRERAWLTWEKVSSVDGILEGYIQKKKELWGICIFIAAVDLDEMPFTFTELQKSIETSVYKFFDLLKEIDTSTKVDNAMSRLLKKYNVLCALYSKLERTCELIYLTQPSSALSTEINSMLVLKISWITFLLAKGEVLQMEDDLVISFQLMLCVVDYFIKFSPPALLREPYKTAAIPINGSPRTPRRGQNRSARIAKQLENDTRIIEVLCKEHECNIDEVKNVYFKNFIPFINSLGIVSSNGLPEVESLSKRYEEVYLKNKDLDARLFLDHDKTLQTDPIDSFETERTPRKNNPDEEANVVTPHTPVRTVMNTIQQLMVILNSASDQPSENLISYFNNCTVNPKENILKRVKDVGHIFKEKFANAVGQGCVDIGVQRYKLGVRLYYRVMESMLKSEEERLSIQNFSKLLNDNIFHMSLLACALEVVMATYSRSTLQHLDSGTDLSFPWILNVLNLKAFDFYKVIESFIKVEANLTREMIKHLERCEHRIMESLAWLSDSPLFDLIKQSKDGEGPDNLEPACPLSLPLQGNHTAADMYLSPLRSPKKRTSTTRVNSAANTETQAASAFHTQKPLKSTSLALFYKKVYRLAYLRLNTLCARLLSDHPELEHIIWTLFQHTLQNEYELMRDRHLDQIMMCSMYGICKVKNIDLKFKIIVTAYKDLPHAAQETFKRVLIREEEFDSIIVFYNSVFMQRLKTNILQYASTRPPTLSPIPHIPRSPYKFSSSPLRIPGGNIYISPLKSPYKISEGLPTPTKMTPRSRILVSIGESFGTSEKFQKINQMVCNSDRVLKRSAEGGNPPKPLKKLRFDIEGADEADGSKHLPAESKFQQKLAEMTSTRTRMQKQRMNESKDVSNKEEK
modifications: hypophosphorylated (sites not given)
As to B4, the binding result in assay [5] was “binds”.

These data come from patent publication US20080248994A1 (GOVERNMENT OF THE UNITED STATES OF AMERICA AS REPRESENTED …, published 2008).
